At least one structure is not confirmed: it was looked up by name or label, or the drawing left a doubt.
System: South African variant of SARS-CoV-2 (SARS-CoV-2 SA)
Assay type: cell-based
Settings: 1, 0.1, 0.01 μM AA alone, no riboflavin; 425 nm light 7.5 J/cm^2; FIG. 3C

With `O=C1O[C@H]([C@@H](O)CO)C(O)=C1O` [ascorbate] the “changes in viral loads of SARS-CoV-2 SA” value was “little to no changes”.

From US11980774B2, “Illumination devices and related methods for phototherapeutic light treatments in the presence of vitamins” (priority 2021, dated 2024)
